Measurements taken from PubChem BioAssay AID720711 (National Center for Advancing Translational Sciences (NCATS), 2013).
About 290 (0.081%) of roughly 360,000 compounds were called active. This list was built around the results that the source calls inconclusive (neither active nor inactive); the mix of calls is not that of the screen. The call rests on the fitted dose curve; in most records, active means well fitted activation curve with a large enough effect; inconclusive means small, poorly fitted or top-dose-only effect; inactive means no such curve, though single readings can be large or run the other way. Potencies beside an inconclusive call are fits to weak or partial responses and may not hold up.

Protein sequences, listed by entry. Tags and fused reporters are not part of them. Lines headed by an entry give the natural chain unless they say otherwise; changes in a name come on top.
UniProt Q8WZA2: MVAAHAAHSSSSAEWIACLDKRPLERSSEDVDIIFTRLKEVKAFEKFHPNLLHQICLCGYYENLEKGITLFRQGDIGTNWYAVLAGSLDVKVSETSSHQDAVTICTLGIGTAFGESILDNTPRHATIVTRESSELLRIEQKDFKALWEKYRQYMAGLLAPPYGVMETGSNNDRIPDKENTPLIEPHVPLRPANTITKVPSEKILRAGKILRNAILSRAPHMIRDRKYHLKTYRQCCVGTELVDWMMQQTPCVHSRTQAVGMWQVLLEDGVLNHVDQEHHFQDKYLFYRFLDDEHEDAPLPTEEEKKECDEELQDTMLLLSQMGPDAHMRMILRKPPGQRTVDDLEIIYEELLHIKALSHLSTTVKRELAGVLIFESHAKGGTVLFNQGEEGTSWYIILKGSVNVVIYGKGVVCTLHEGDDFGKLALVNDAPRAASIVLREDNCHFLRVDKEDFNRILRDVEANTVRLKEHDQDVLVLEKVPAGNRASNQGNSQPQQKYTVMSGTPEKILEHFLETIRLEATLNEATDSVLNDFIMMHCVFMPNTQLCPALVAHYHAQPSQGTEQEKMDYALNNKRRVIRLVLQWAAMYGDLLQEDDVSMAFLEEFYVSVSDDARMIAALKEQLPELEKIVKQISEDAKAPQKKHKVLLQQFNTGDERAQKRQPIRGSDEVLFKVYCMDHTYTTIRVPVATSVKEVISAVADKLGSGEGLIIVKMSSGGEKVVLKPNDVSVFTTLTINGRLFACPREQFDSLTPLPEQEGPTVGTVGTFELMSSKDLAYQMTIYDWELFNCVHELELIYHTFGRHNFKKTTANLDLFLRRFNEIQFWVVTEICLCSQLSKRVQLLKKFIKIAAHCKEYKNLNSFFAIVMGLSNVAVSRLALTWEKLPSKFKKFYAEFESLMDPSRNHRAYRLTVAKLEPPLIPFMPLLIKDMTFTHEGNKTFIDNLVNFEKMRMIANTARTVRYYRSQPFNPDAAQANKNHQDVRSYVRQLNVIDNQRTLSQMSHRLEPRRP

target: Rap guanine nucleotide exchange factor 4 (Homo sapiens) (UniProt Q8WZA2); test: qHTS for Agonist of cAMP-regulated guanine nucleotide exchange factor 4 (EPAC2): primary screen; details: biochemical qHTS; Potency: EPAC2 activation unless noted; activation: at 154 µM (top of the series), 100% = 6.5 mM cAMP response unless noted; further: nearly all actives have a fitted effect of over 50% in size
Method in brief: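 Setup: EPAC2 100 nM, labeled Rap1B complex 250 nM, free GDP 50 uM. Compound titrations pinned in, brief spin, 5 min room temperature incubation. Kinetic fluorescence read over 30 min, normalized to 6.5 mM cAMP.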
Potency means the concentration at half of the fitted maximal effect.

| SMILES | Potency | activation |
| --- | --- | --- |
| C/C(=N\N(c1ccccc1)c1ccccc1)c1ccc(O)cc1 | inconclusive: 100 µM [activator, partial curve] | – |
| O=C1NC(=O)C2(CCC(C(=O)O)C2)N1 (stereo not drawn) | inconclusive: 126 µM [activator, single point] | – |
| CCOc1ccccc1NC(=O)C(OC(=O)c1ccc(O)cc1)c1ccccc1 (stereo not drawn) | inconclusive: 100 µM [activator, partial curve] | – |
| Cc1ccc(Cn2c(=N)n(CC(O)c3ccco3)c3ccccc32)cc1 (stereo not drawn) | – | inconclusive: 196% [activator] [at 15.6 µM, 100% = 6.5 mM cAMP response] |
| CCSc1nnc(-c2sc3nnc(-c4ccccc4)c(-c4ccccc4)c3c2N)o1 | active: 100 µM | – |
| O=C(CN1C(=O)NC2(CCCCCC2)C1=O)Nc1ccccc1[N+](=O)[O-] | inconclusive: 39.8 µM [activator, single point] | – |
| Cc1cccc(-n2c(C)cc(/C=C3\C(=N)N4N=C(CC(C)C)SC4=NC3=O)c2C)c1 | inactive | – |
| O=C(Nc1cccnc1)c1c(O)c2cccc3c2n(c1=O)CC3 | inconclusive: 100 µM [activator, partial curve] | – |
| CCCc1nc(SC2CCCC2)c2c(=O)n(C)c(=O)n(C)c2n1 | inconclusive: 3.55 µM [activator, full curve, poor fit] | – |
| O=C(NCCCN1CCOCC1)c1ccc(CSc2ccc(Cl)cc2)cc1 | inconclusive: 126 µM [activator, single point] | – |
| COc1ccccc1OCCCn1cc(C#N)c2ccccc21 | inconclusive: 112 µM [activator, single point] | – |
| CCC1CCC2(CC1)NC(=O)N(CC(=O)Nc1cc(C)on1)C2=O (stereo not drawn) | inconclusive: 50.1 µM [activator, single point] | – |
| CCCC(=O)NC(c1ccc(OC)c(OC)c1)c1cc(Cl)c2cccnc2c1O (stereo not drawn) | inconclusive: 100 µM [activator, partial curve] | – |
| CC(C)(C)n1nnnc1C(c1cccnc1)N1CCN(c2ccccc2F)CC1 (stereo not drawn) | – | inconclusive: 65% [activator] [at 15.6 µM, 100% = 6.5 mM cAMP response] |
| O=C(Cn1ccc(=O)[nH]c1=O)NCCO | inactive | – |
| Cc1ccc2oc(=O)c(/C=C(\O)c3cccs3)nc2c1 | active: 63.1 µM | – |
| Cc1ccc(C(=O)O)cc1-n1c(=O)n(Cc2ccccc2)c(=O)c2[nH]cnc21 | inactive | – |
| CCCCC(=O)Nc1cnc(NC(=O)c2ccco2)cc1C | inactive | – |
| CCN(CC)c1ccc2cc(C(=O)NNC(=O)c3ccc(S(=O)(=O)N4CCCCC4)cc3)c(=O)oc2c1 | inconclusive: 112 µM [activator, single point] | – |
| Cc1csc2c(=O)sc(NC(=O)c3cccs3)nc12 | inconclusive: 100 µM [activator, partial curve] | – |
| O=C1c2oc3ccc(Br)cc3c(=O)c2C(c2cccc(F)c2)N1CCO (stereo not drawn) | inconclusive: 50.1 µM [activator, single point] | – |
| CCOC(=O)c1ccc(NC(=S)NNC(=O)C2(C)CC2(Cl)Cl)cc1 (stereo not drawn) | inconclusive: 100 µM [activator, single point] | – |

Rewritten bar-delimited: 8 of the compounds above.
SMILES | Potency | activation
C/C(=N\N(c1ccccc1)c1ccccc1)c1ccc(O)cc1 | inconclusive: 100 µM [activator, partial curve] | –
O=C1NC(=O)C2(CCC(C(=O)O)C2)N1 (stereo not drawn) | inconclusive: 126 µM [activator, single point] | –
CCSc1nnc(-c2sc3nnc(-c4ccccc4)c(-c4ccccc4)c3c2N)o1 | active: 100 µM | –
O=C(NCCCN1CCOCC1)c1ccc(CSc2ccc(Cl)cc2)cc1 | inconclusive: 126 µM [activator, single point] | –
CC(C)(C)n1nnnc1C(c1cccnc1)N1CCN(c2ccccc2F)CC1 (stereo not drawn) | – | inconclusive: 65% [activator] [at 15.6 µM, 100% = 6.5 mM cAMP response]
Cc1ccc(C(=O)O)cc1-n1c(=O)n(Cc2ccccc2)c(=O)c2[nH]cnc21 | inactive | –
Cc1csc2c(=O)sc(NC(=O)c3cccs3)nc12 | inconclusive: 100 µM [activator, partial curve] | –
CCOC(=O)c1ccc(NC(=S)NNC(=O)C2(C)CC2(Cl)Cl)cc1 (stereo not drawn) | inconclusive: 100 µM [activator, single point] | –

Following part

| SMILES | Potency | activation |
| --- | --- | --- |
| CCOC(=O)/C(C#N)=C/c1ccc(N2CCCCC2)cc1 | active: 79.4 µM | – |
| N#C/C(=C/c1ccc(N2CCOCC2)o1)C(=O)Nc1ccccc1 | active: 100 µM | – |
| CCN1C(=O)C(=CC=CN(C)c2ccccc2)SC1=S | active: 89.1 µM | – |
| C/C(=N/NC(=O)c1ccncc1)c1cc2ccc(O)cc2oc1=O | active: 89.1 µM | – |
| CCOC(=O)c1ccc(NCc2ccc3c(c2)OCO3)cc1 | inconclusive: 100 µM [activator, partial curve] | – |
| CCN1CCN(CCCNC(=O)C2CCCN(c3nnc(-n4cccc4)s3)C2)CC1 (stereo not drawn) | – | inconclusive: 68.3% [activator] [at 15.6 µM, 100% = 6.5 mM cAMP response] |
| CN1/C(=C\C=C(/C#N)C(=O)Nc2ccccc2F)C(C)(C)c2ccccc21 | active: 100 µM | – |
| CCC/C(C#Cc1ccc(N(C)C)cc1)=C1/c2ccccc2C(=O)N1c1ccccc1 | inconclusive: 50.1 µM [activator, full curve] | – |
| Nc1c(C(=O)c2ccccc2)sc2nsc(SCCN3CCOCC3)c12 | inconclusive: 112 µM [activator, partial curve, poor fit] | – |
| CCOC(=O)Cc1csc(SCC(=O)NC2CCCCC2)n1 | inconclusive: 112 µM [activator, single point] | – |
| CCCC1CC(c2csc(N)n2)CCO1 (stereo not drawn) | – | inconclusive: 45.6% [activator] [at 15.6 µM, 100% = 6.5 mM cAMP response] |
| O=C1CCCC(O)=C1C(C#Cc1ccccc1)C1=C(O)CCCC1=O | inactive | – |
| COCC(=O)Nc1ccc2c(c1)[C@@H]1C[C@H](CC(=O)NCc3ccccc3)O[C@@H](CO)[C@@H]1O2 | inactive | – |
| Clc1ccc(/C=C\c2nccc3c2[nH]c2ccccc23)cc1 | inactive | – |
| CCN1C(=O)/C(=C/N2CCc3ccccc32)SC1=S | inconclusive: 79.4 µM [activator, partial curve] | – |
| COc1ccc(-c2ccc(CN3C(C(C)C)C(=O)N(Cc4cn(Cc5ccco5)nn4)CCS3(=O)=O)cc2)cc1OC (stereo not drawn) | inconclusive: 10 µM [activator, full curve, poor fit] | – |
| COC(=O)C(NC(=O)c1ccc(F)cc1)(Nc1ncc(S(=O)(=O)c2ccc([N+](=O)[O-])cc2)s1)C(F)(F)F (stereo not drawn) | inactive | – |
| Cc1ccc(-c2cc(C(=O)Nc3ccc4c(c3)OCCO4)c3ccccc3n2)cc1 | active: 7.94 µM | – |
| Cc1c(CCC(=O)O)c(=O)oc2c(C)c3occ(-c4ccc(Cl)cc4)c3cc12 | inconclusive: 31.6 µM [activator, partial curve, poor fit] | – |
| CCCN1C(=O)/C(=C/c2ccc(C)s2)SC1=Nc1ccc(OC)cc1 | inconclusive: 112 µM [activator, single point] | – |
| c1ccc(OCCNc2ccn3nc(-c4ccccc4)cc3n2)cc1 | inconclusive: 100 µM [activator, partial curve] | – |
